{
  "sequences": {"note": "Amino acid sequences for entries named in this document (tags omitted). A change or cut given only in a name is not applied to a line headed by its entry.", "UniProt Q9UGI8": "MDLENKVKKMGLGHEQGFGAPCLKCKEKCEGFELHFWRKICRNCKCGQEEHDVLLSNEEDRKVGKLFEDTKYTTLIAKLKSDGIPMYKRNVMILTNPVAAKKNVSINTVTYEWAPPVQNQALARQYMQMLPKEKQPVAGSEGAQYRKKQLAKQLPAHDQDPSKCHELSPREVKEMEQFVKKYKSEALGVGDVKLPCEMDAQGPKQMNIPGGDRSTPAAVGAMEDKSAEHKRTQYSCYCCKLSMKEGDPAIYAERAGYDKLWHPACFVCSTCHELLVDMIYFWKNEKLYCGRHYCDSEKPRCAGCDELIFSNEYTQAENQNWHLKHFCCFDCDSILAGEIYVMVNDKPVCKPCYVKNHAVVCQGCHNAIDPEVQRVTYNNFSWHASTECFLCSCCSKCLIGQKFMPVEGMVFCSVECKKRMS", "UniProt Q8NHU6": "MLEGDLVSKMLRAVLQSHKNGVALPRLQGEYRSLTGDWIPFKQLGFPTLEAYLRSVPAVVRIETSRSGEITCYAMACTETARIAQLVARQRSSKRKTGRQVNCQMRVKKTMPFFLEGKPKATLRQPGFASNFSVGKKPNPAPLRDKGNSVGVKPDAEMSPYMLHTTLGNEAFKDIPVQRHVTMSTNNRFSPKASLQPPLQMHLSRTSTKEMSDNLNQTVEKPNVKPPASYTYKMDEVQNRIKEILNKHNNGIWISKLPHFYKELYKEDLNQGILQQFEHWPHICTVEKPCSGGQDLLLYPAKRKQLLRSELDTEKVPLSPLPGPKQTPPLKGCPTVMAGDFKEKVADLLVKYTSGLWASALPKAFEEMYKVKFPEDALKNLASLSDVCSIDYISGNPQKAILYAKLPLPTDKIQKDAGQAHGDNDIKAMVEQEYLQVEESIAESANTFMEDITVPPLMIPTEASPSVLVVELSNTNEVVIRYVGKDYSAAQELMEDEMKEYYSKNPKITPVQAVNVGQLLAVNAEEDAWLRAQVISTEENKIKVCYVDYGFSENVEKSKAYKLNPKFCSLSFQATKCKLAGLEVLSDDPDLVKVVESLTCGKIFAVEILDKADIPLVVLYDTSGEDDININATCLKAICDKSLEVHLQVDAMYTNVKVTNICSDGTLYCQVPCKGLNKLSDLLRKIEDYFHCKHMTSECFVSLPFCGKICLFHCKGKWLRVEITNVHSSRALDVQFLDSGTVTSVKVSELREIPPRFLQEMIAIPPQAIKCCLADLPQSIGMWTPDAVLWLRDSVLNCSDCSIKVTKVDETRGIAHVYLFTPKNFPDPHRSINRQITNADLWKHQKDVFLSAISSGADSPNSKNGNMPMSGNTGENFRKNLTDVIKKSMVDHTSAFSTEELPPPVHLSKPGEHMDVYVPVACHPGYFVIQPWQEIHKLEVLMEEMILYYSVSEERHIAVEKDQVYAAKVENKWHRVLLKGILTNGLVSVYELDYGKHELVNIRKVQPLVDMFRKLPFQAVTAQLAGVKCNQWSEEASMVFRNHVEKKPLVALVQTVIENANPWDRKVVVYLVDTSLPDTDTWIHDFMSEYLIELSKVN", "UniProt P07996": "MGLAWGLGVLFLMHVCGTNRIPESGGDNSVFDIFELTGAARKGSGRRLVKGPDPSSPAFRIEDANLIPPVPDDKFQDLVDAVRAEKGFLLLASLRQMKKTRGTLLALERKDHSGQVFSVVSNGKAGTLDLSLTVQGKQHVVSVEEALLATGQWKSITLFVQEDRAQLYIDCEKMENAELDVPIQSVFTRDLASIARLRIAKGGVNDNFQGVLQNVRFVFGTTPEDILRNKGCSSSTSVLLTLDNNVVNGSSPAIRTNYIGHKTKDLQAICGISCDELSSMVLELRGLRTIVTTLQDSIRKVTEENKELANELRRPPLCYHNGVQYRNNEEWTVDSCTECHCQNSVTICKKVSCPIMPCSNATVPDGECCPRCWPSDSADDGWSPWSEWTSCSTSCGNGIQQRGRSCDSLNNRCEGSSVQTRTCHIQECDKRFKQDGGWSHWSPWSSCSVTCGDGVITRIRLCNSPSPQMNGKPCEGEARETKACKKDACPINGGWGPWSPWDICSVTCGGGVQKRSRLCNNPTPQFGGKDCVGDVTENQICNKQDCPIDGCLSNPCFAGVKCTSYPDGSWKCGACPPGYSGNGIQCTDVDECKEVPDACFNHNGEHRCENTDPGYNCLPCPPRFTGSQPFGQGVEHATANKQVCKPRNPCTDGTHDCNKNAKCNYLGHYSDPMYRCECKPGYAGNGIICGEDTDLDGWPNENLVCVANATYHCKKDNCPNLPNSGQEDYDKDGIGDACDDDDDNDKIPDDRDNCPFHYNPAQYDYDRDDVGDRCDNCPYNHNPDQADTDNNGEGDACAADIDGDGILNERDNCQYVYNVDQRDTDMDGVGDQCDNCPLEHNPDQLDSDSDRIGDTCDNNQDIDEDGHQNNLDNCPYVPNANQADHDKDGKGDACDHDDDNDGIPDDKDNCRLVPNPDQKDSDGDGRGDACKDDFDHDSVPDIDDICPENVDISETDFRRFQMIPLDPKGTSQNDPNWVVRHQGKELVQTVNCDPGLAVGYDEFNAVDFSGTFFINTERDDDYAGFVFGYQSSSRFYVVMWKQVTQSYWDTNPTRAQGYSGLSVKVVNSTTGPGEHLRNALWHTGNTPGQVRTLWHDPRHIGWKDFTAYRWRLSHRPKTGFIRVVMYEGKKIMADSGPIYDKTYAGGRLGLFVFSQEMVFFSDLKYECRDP", "UniProt Q9Y490": "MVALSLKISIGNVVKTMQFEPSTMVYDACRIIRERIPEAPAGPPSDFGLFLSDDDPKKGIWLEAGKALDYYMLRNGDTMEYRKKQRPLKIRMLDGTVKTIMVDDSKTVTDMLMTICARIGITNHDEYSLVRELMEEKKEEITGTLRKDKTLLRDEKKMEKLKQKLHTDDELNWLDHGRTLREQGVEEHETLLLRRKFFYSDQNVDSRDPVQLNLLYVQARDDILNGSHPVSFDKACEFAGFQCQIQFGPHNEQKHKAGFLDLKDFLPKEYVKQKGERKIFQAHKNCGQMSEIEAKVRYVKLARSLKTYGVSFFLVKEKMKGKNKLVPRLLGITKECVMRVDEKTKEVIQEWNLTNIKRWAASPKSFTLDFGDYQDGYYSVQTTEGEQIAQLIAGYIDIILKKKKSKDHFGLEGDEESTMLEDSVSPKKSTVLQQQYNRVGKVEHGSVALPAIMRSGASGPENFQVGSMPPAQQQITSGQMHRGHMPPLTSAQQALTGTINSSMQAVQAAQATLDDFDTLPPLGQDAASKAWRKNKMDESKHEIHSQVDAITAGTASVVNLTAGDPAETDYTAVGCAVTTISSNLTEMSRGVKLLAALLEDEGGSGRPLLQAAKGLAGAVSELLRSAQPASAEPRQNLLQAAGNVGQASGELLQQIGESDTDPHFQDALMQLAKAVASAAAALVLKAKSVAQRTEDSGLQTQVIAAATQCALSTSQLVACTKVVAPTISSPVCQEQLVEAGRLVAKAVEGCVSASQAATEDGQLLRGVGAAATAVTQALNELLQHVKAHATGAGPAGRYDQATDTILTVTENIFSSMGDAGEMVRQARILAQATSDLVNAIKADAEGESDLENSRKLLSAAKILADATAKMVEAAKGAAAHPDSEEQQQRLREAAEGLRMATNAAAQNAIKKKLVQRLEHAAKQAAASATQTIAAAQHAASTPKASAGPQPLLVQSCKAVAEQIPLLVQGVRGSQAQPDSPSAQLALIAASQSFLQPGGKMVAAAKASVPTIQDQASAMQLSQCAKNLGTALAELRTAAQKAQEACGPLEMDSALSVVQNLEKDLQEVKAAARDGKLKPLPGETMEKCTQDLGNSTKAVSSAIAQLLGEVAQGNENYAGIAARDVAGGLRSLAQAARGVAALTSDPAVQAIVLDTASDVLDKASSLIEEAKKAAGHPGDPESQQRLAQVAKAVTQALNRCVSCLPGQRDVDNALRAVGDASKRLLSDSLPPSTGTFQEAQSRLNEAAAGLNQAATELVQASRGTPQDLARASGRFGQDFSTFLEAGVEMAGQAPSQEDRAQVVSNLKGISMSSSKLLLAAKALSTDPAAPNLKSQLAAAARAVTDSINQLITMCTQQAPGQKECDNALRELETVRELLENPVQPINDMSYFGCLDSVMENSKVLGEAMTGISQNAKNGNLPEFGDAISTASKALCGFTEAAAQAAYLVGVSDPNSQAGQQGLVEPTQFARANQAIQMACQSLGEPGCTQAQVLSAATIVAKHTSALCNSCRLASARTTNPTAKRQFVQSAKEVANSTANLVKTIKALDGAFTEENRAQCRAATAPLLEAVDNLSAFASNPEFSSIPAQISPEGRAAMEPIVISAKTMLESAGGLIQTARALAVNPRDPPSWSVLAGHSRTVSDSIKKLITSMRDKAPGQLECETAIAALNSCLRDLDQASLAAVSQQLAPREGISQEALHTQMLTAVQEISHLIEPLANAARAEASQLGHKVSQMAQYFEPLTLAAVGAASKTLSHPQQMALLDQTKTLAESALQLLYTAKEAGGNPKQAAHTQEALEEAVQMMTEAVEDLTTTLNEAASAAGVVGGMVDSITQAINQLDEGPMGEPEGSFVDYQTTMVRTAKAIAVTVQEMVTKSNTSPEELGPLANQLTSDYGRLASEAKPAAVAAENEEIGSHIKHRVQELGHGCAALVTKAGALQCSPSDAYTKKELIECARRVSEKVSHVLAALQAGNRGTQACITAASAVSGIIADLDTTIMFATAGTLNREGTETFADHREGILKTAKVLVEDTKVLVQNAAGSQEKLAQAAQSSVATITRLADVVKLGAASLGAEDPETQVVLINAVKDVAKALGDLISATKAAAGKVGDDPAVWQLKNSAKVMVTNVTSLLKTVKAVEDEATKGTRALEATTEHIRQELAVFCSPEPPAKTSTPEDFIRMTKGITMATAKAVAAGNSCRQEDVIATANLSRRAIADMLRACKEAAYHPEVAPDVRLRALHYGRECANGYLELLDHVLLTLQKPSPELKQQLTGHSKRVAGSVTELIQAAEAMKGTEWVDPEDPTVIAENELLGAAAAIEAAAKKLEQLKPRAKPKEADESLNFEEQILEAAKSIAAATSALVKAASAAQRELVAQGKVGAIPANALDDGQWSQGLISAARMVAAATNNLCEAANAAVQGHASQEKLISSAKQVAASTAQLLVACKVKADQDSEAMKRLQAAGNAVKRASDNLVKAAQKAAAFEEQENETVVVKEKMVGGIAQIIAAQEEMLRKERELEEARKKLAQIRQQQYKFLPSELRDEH", "UniProt P29401": "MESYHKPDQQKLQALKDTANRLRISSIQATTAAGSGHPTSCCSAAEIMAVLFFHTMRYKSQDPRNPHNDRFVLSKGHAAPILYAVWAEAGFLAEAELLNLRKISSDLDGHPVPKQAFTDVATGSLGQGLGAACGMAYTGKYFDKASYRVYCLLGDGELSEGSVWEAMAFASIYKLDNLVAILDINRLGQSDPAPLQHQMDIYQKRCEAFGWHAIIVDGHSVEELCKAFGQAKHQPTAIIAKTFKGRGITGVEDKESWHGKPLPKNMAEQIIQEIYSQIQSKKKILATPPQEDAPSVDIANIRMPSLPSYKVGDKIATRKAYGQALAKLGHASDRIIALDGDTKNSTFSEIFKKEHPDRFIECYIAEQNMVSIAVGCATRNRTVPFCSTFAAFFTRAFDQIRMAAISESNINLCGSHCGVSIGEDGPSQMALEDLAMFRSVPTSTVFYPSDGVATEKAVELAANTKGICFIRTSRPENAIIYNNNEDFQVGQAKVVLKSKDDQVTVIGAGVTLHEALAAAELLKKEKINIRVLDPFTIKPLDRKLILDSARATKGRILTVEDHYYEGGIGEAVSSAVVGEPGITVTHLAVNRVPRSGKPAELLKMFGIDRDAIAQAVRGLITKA", "UniProt Q86W42": "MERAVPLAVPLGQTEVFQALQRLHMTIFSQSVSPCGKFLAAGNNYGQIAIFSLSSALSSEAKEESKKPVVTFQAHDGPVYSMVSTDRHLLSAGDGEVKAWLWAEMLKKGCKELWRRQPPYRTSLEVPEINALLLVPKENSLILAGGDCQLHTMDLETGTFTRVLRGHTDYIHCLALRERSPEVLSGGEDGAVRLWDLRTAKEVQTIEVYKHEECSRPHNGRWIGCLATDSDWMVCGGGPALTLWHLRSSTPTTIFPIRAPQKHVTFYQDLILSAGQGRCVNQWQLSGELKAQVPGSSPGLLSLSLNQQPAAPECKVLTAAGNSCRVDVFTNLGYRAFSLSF", "UniProt O75663": "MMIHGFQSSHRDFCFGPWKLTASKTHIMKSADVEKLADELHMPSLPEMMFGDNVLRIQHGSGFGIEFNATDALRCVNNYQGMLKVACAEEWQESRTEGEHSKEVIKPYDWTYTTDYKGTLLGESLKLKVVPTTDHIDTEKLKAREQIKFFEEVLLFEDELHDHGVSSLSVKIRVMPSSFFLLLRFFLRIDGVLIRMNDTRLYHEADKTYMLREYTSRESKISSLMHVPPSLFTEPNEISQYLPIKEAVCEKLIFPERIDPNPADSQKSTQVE"},
  "source": "the supplement of paper PMC12067093",
  "about": "“Discovery and optimisation of a covalent ligand for TRIM25 and its application to targeted protein ubiquitination” (Chemical Science, 2025)",
  "compound": "Cc1cc(ccc1-c1ccccc1)C(=O)N1CCCN(CC1)C(=O)CCl [compound 10]",
  "experiment": "probe-labelled cysteine peptide fold change vs DMSO (competition) (log2 fold change); higher = less target engagement (more negative = stronger competition)",
  "conditions": "THP-1, incubation time: 4 h",
  "note": "Some of the results follow.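 Further: competitive profiling in live THP-1 cells: cysteine peptides tagged with an iodoacetamide desthiobiotin (IA-DTB) probe, intensity after compound treatment relative to DMSO-treated cells.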",
  "data": [
    {"target": "THOC1_Q96FV9_49_KCTLDQAFR (UniProt Q96FV9)", "values": [
      {"measurement": "probe-labelled cysteine peptide fold change", "setting": "10 µM", "result": -0.137},
      {"measurement": "probe-labelled cysteine peptide fold change", "setting": "50 µM", "result": -0.739}
    ]},
    {"target": "TGFBR1_P36897_461_LRPNIPNRWQSCEALR (UniProt P36897)", "values": [
      {"measurement": "probe-labelled cysteine peptide fold change", "setting": "10 µM", "result": -0.293},
      {"measurement": "probe-labelled cysteine peptide fold change", "setting": "50 µM", "result": -0.28}
    ]},
    {"target": "TGFBI_Q15582_49_QHGPNVCAVQK (UniProt Q15582)", "values": [
      {"measurement": "probe-labelled cysteine peptide fold change", "setting": "10 µM", "result": -0.523},
      {"measurement": "probe-labelled cysteine peptide fold change", "setting": "50 µM", "result": -0.687}
    ]},
    {"target": "THBD_P07204_175_ADGFLCEFHFPATCRPLAVEPGAAAAAVSITYGTPFAAR (UniProt P07204)", "values": [
      {"measurement": "probe-labelled cysteine peptide fold change", "setting": "10 µM", "result": -0.212},
      {"measurement": "probe-labelled cysteine peptide fold change", "setting": "50 µM", "result": 0.339}
    ]},
    {"target": "TECR_Q9NZ01_18_LCFLDK (UniProt Q9NZ01)", "values": [
      {"measurement": "probe-labelled cysteine peptide fold change", "setting": "10 µM", "result": -0.134},
      {"measurement": "probe-labelled cysteine peptide fold change", "setting": "50 µM", "result": -0.16}
    ]},
    {"target": "TFIP11_Q9UBB9_383_VLEMVEECER (UniProt Q9UBB9)", "values": [
      {"measurement": "probe-labelled cysteine peptide fold change", "setting": "10 µM", "result": 0.13},
      {"measurement": "probe-labelled cysteine peptide fold change", "setting": "50 µM", "result": 0.19}
    ]},
    {"target": "TES_Q9UGI8_164_CHELSPR (UniProt Q9UGI8)", "values": [
      {"measurement": "probe-labelled cysteine peptide fold change", "setting": "10 µM", "result": -0.162},
      {"measurement": "probe-labelled cysteine peptide fold change", "setting": "50 µM", "result": -0.0644}
    ]},
    {"target": "THTPA_Q9BU02_66_CPGAAGVLGPHTEYK (UniProt Q9BU02)", "values": [
      {"measurement": "probe-labelled cysteine peptide fold change", "setting": "10 µM", "result": -0.0742},
      {"measurement": "probe-labelled cysteine peptide fold change", "setting": "50 µM", "result": -0.142}
    ]},
    {"target": "THAP12_O43422_230_FETTAVNTLFCSK (UniProt O43422)", "values": [
      {"measurement": "probe-labelled cysteine peptide fold change", "setting": "10 µM", "result": -0.0157},
      {"measurement": "probe-labelled cysteine peptide fold change", "setting": "50 µM", "result": -0.041}
    ]},
    {"target": "TDRD7_Q8NHU6_284_ELYKEDLNQGILQQFEHWPHICTVEK (UniProt Q8NHU6)", "values": [
      {"measurement": "probe-labelled cysteine peptide fold change", "setting": "10 µM", "result": -0.238},
      {"measurement": "probe-labelled cysteine peptide fold change", "setting": "50 µM", "result": -0.685}
    ]},
    {"target": "TGS1_Q96RS0_28_ILCLCSR (UniProt Q96RS0)", "values": [
      {"measurement": "probe-labelled cysteine peptide fold change", "setting": "10 µM", "result": 0.127},
      {"measurement": "probe-labelled cysteine peptide fold change", "setting": "50 µM", "result": 0.301}
    ]},
    {"target": "THOC7_Q6I9Y2_90_EIECSIAGAHEK (UniProt Q6I9Y2)", "values": [
      {"measurement": "probe-labelled cysteine peptide fold change", "setting": "10 µM", "result": -0.0418},
      {"measurement": "probe-labelled cysteine peptide fold change", "setting": "50 µM", "result": 0.0365}
    ]},
    {"target": "TENT2_Q6PIY7_431_YICVEEPFDGTNTAR (UniProt Q6PIY7)", "values": [
      {"measurement": "probe-labelled cysteine peptide fold change", "setting": "10 µM", "result": -0.203},
      {"measurement": "probe-labelled cysteine peptide fold change", "setting": "50 µM", "result": 0.261}
    ]},
    {"target": "TCP1_P17987_76_VLCELADLQDK (UniProt P17987)", "values": [
      {"measurement": "probe-labelled cysteine peptide fold change", "setting": "10 µM", "result": 0.0996},
      {"measurement": "probe-labelled cysteine peptide fold change", "setting": "50 µM", "result": 0.0907}
    ]},
    {"target": "THBS1_P07996_318_RPPLCYHNGVQYR (UniProt P07996)", "values": [
      {"measurement": "probe-labelled cysteine peptide fold change", "setting": "10 µM", "result": -0.232},
      {"measurement": "probe-labelled cysteine peptide fold change", "setting": "50 µM", "result": -0.379}
    ]},
    {"target": "TLN1_Q9Y490_1363_ECDNALRELETVR (UniProt Q9Y490)", "values": [
      {"measurement": "probe-labelled cysteine peptide fold change", "setting": "10 µM", "result": -0.431},
      {"measurement": "probe-labelled cysteine peptide fold change", "setting": "50 µM", "result": -1}
    ]},
    {"target": "THUMPD3_Q9BV44_239_HCFTSNEAAR (UniProt Q9BV44)", "values": [
      {"measurement": "probe-labelled cysteine peptide fold change", "setting": "10 µM", "result": -0.116},
      {"measurement": "probe-labelled cysteine peptide fold change", "setting": "50 µM", "result": -0.17}
    ]},
    {"target": "TFCP2_Q12800_453_IAQLFSISPCQISQIYK (UniProt Q12800)", "values": [
      {"measurement": "probe-labelled cysteine peptide fold change", "setting": "10 µM", "result": 0.141},
      {"measurement": "probe-labelled cysteine peptide fold change", "setting": "50 µM", "result": -0.0417}
    ]},
    {"target": "TLN1_Q9Y490_1023_ASVPTIQDQASAMQLSQCAK (UniProt Q9Y490)", "values": [
      {"measurement": "probe-labelled cysteine peptide fold change", "setting": "10 µM", "result": 0.2},
      {"measurement": "probe-labelled cysteine peptide fold change", "setting": "50 µM", "result": 0.246}
    ]},
    {"target": "TIMM29_Q9BSF4_182_DCDINDDEFLHLPAHLR (UniProt Q9BSF4)", "values": [
      {"measurement": "probe-labelled cysteine peptide fold change", "setting": "10 µM", "result": -0.0425},
      {"measurement": "probe-labelled cysteine peptide fold change", "setting": "50 µM", "result": 0.314}
    ]},
    {"target": "THOC5_Q13769_613_ELCGPWPSHQLLTNQLQR (UniProt Q13769)", "values": [
      {"measurement": "probe-labelled cysteine peptide fold change", "setting": "10 µM", "result": 0.0519},
      {"measurement": "probe-labelled cysteine peptide fold change", "setting": "50 µM", "result": 0.219}
    ]},
    {"target": "TKT_P29401_206+225_RCEAFGWHAIIVDGHSVEELCK (UniProt P29401)", "values": [
      {"measurement": "probe-labelled cysteine peptide fold change", "setting": "10 µM", "result": -0.0863},
      {"measurement": "probe-labelled cysteine peptide fold change", "setting": "50 µM", "result": 0.0364}
    ]},
    {"target": "THSD7A_Q9UPZ6_1459_SRPVIIQELENQHLCPEQMLETK (UniProt Q9UPZ6)", "values": [
      {"measurement": "probe-labelled cysteine peptide fold change", "setting": "10 µM", "result": 0.0724},
      {"measurement": "probe-labelled cysteine peptide fold change", "setting": "50 µM", "result": 0.0865}
    ]},
    {"target": "TDRD7_Q8NHU6_103_QVNCQMR (UniProt Q8NHU6)", "values": [
      {"measurement": "probe-labelled cysteine peptide fold change", "setting": "10 µM", "result": -0.119},
      {"measurement": "probe-labelled cysteine peptide fold change", "setting": "50 µM", "result": -0.257}
    ]},
    {"target": "TLE3_Q04726_490_QINTLSHGEVVCAVTISNPTR (UniProt Q04726)", "values": [
      {"measurement": "probe-labelled cysteine peptide fold change", "setting": "10 µM", "result": 0.157},
      {"measurement": "probe-labelled cysteine peptide fold change", "setting": "50 µM", "result": 0.119}
    ]},
    {"target": "TKT_P29401_362_EHPDRFIECYIAEQNMVSIAVGCATR (UniProt P29401)", "values": [
      {"measurement": "probe-labelled cysteine peptide fold change", "setting": "10 µM", "result": 0.149},
      {"measurement": "probe-labelled cysteine peptide fold change", "setting": "50 µM", "result": -0.161}
    ]},
    {"target": "THBS1_P07996_930_DSDGDGRGDACK (UniProt P07996)", "values": [
      {"measurement": "probe-labelled cysteine peptide fold change", "setting": "10 µM", "result": -0.977},
      {"measurement": "probe-labelled cysteine peptide fold change", "setting": "50 µM", "result": -0.271}
    ]},
    {"target": "THOC6_Q86W42_214_EVQTIEVYKHEECSRPHNGR (UniProt Q86W42)", "values": [
      {"measurement": "probe-labelled cysteine peptide fold change", "setting": "10 µM", "result": -0.0668},
      {"measurement": "probe-labelled cysteine peptide fold change", "setting": "50 µM", "result": -0.454}
    ]},
    {"target": "THBS1_P07996_657_NPCTDGTHDCNK (UniProt P07996)", "values": [
      {"measurement": "probe-labelled cysteine peptide fold change", "setting": "10 µM", "result": -0.52},
      {"measurement": "probe-labelled cysteine peptide fold change", "setting": "50 µM", "result": -0.374}
    ]},
    {"target": "TEX30_Q5JUR7_166_EPVLFVSGSADEMCEK (UniProt Q5JUR7)", "values": [
      {"measurement": "probe-labelled cysteine peptide fold change", "setting": "10 µM", "result": -0.247},
      {"measurement": "probe-labelled cysteine peptide fold change", "setting": "50 µM", "result": 0.0431}
    ]},
    {"target": "TIPRL_O75663_14_DFCFGPWK (UniProt O75663)", "values": [
      {"measurement": "probe-labelled cysteine peptide fold change", "setting": "10 µM", "result": -0.0376},
      {"measurement": "probe-labelled cysteine peptide fold change", "setting": "50 µM", "result": -0.0619}
    ]},
    {"target": "THUMPD1_Q9NXG2_31_CDAGGPR (UniProt Q9NXG2)", "values": [
      {"measurement": "probe-labelled cysteine peptide fold change", "setting": "10 µM", "result": 0.347},
      {"measurement": "probe-labelled cysteine peptide fold change", "setting": "50 µM", "result": 1.08}
    ]},
    {"target": "THEMIS2_Q5TEJ8_545_KLPACEIQAPPPRPPK (UniProt Q5TEJ8)", "values": [
      {"measurement": "probe-labelled cysteine peptide fold change", "setting": "10 µM", "result": -0.189},
      {"measurement": "probe-labelled cysteine peptide fold change", "setting": "50 µM", "result": -0.294}
    ]},
    {"target": "TES_Q9UGI8_412+416_FMPVEGMVFCSVECK (UniProt Q9UGI8)", "values": [
      {"measurement": "probe-labelled cysteine peptide fold change", "setting": "10 µM", "result": -0.248},
      {"measurement": "probe-labelled cysteine peptide fold change", "setting": "50 µM", "result": -0.434}
    ]},
    {"target": "THOP1_P52888_175_KLSLLCIDFNK (UniProt P52888)", "values": [
      {"measurement": "probe-labelled cysteine peptide fold change", "setting": "10 µM", "result": -0.00153},
      {"measurement": "probe-labelled cysteine peptide fold change", "setting": "50 µM", "result": 0.0417}
    ]}
  ]
}
